{"source": "patent US9731052B2", "about": "“Methods for stepwise deposition of silk fibroin coatings” (TRUSTEES OF TUFTS COLLEGE, priority 2005, dated 2017)", "system": "human bone marrow stem cells (hMSCs)", "test": "hMSC culture on silk fibroin/dex films or with dex in culture media (H&E, ALP staining)", "type": "cell-based", "conditions": "compared with control (silk fibroin films)", "note": "For at least one compound, name, drawing or mass did not settle the structure."}
{"smiles": "C[C@@H]1C[C@H]2[C@@H]3CCC4=CC(=O)C=C[C@]4(C)[C@@]3(F)[C@@H](O)C[C@]2(C)[C@@]1(O)C(=O)CO", "note": "[dex, dexamethasone]", "values": [{"measurement": "AP activity", "value": "significant increase"}]}
